The list shows a part of the results. Only a few entries rise above the background.
Tests used:
Assay in all cases: fluorescence intensity of antibody binding to polysaccharide-coupled beads; higher = stronger binding
[1] = target: pneumococcal polysaccharide Pn23F
Description: (§1)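 Recombinant rhesus-murine chimeric IgG1 antibodies were tested against antigen-coupled MagPlex beads in a 96-plex Luminex direct immunoassay (dLIA). The beads carried pneumococcal capsular polysaccharides of 93 serotypes plus C-polysaccharides. Antibody was added at 0.1–12,500 ng/mL for 1 h, then PE anti-mouse IgG, and net MFI was read on a Bio-Plex 3D. Only the rhesus variable regions are printed; constant regions are murine IgG1/kappa/lambda, and the signal peptide is MGWSCIILFLVATATGVHS.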

[2] = target: pneumococcal polysaccharide Pn24A
Description: as §1

[3] = target: pneumococcal polysaccharide Pn24B
Description: as §1

[4] = target: pneumococcal polysaccharide Pn24F
Description: as §1

[5] = target: pneumococcal polysaccharide Pn25A
Description: as §1

[6] = target: pneumococcal polysaccharide Pn25F
Description: as §1

[7] = target: pneumococcal polysaccharide Pn27
Description: as §1

[8] = target: pneumococcal polysaccharide Pn28A
Description: as §1

[9] = target: pneumococcal polysaccharide Pn28F
Description: as §1

[10] = target: pneumococcal polysaccharide Pn29
Description: as §1

[11] = target: pneumococcal polysaccharide Pn3
Description: as §1

[12] = target: pneumococcal polysaccharide Pn31
Description: as §1

[13] = antibody concentration 2.8593 ng/mL
[14] = antibody concentration 15.2894 ng/mL
[15] = antibody concentration 81.7561 ng/mL
[16] = antibody concentration 437.17 ng/mL
[17] = antibody concentration 2337.65 ng/mL
[18] = antibody concentration 12500 ng/mL
[19] = antibody concentration 0.1 ng/mL
[20] = antibody concentration 0.534724 ng/mL

B1: 4-99.4 (protein)
chain 1: QVQLQESGPGLVKPSETLSLTCAVSGYSISSAYFWGWIRQPPGKGLEYIGYISGEGGKSYYNPSLMSRVTISKDTSKNQFSLKLNTVTAADTAVYYCARRAILVGFDLWGQGVLVTVSS
chain 2: QAAPTQPPSVSGSPGQSVTISCTGSNSDIGYYNAVSWYQQHPGKAPKLMIYEVSKRPSGVSDRLTGSKSGNTASLTISGLQAEDEADYYCSSYAGSNTYIFGTGTRLTVL
fluorescence intensity [1, 13]: 19 MFI | fluorescence intensity [1, 14]: 19.5 MFI | fluorescence intensity [1, 15]: 18 MFI | fluorescence intensity [1, 16]: 19.8 MFI | fluorescence intensity [1, 17]: 20 MFI | fluorescence intensity [1, 18]: 32.5 MFI | fluorescence intensity [2, 19]: 16.5 MFI | fluorescence intensity [2, 20]: 16 MFI | fluorescence intensity [2, 13]: 17.5 MFI | fluorescence intensity [2, 14]: 16 MFI | fluorescence intensity [2, 15]: 17 MFI | fluorescence intensity [2, 16]: 17 MFI | fluorescence intensity [2, 17]: 17.5 MFI | fluorescence intensity [2, 18]: 22 MFI | fluorescence intensity [3, 19]: 19.5 MFI | fluorescence intensity [3, 20]: 19 MFI | fluorescence intensity [3, 13]: 19.2 MFI | fluorescence intensity [3, 14]: 18.8 MFI | fluorescence intensity [3, 15]: 20 MFI | fluorescence intensity [3, 16]: 20 MFI | fluorescence intensity [3, 17]: 23 MFI | fluorescence intensity [3, 18]: 38.2 MFI | fluorescence intensity [4, 19]: 19.8 MFI | fluorescence intensity [4, 20]: 18 MFI | fluorescence intensity [4, 13]: 17 MFI | fluorescence intensity [4, 14]: 16 MFI | fluorescence intensity [4, 15]: 15.8 MFI | fluorescence intensity [4, 16]: 17.5 MFI | fluorescence intensity [4, 17]: 24.5 MFI | fluorescence intensity [4, 18]: 39.5 MFI | fluorescence intensity [5, 19]: 23 MFI | fluorescence intensity [5, 20]: 24 MFI | fluorescence intensity [5, 13]: 23.5 MFI | fluorescence intensity [5, 14]: 24 MFI | fluorescence intensity [5, 15]: 26 MFI | fluorescence intensity [5, 16]: 25.8 MFI | fluorescence intensity [5, 17]: 26.5 MFI | fluorescence intensity [5, 18]: 38.5 MFI | fluorescence intensity [6, 19]: 30 MFI | fluorescence intensity [6, 20]: 31.5 MFI | fluorescence intensity [6, 13]: 30.5 MFI | fluorescence intensity [6, 14]: 33.5 MFI | fluorescence intensity [6, 15]: 31.5 MFI | fluorescence intensity [6, 16]: 32.2 MFI | fluorescence intensity [6, 17]: 30.5 MFI | fluorescence intensity [6, 18]: 41 MFI | fluorescence intensity [7, 19]: 18 MFI | fluorescence intensity [7, 20]: 17.5 MFI | fluorescence intensity [7, 13]: 18.5 MFI | fluorescence intensity [7, 14]: 17.5 MFI | fluorescence intensity [7, 15]: 16.5 MFI | fluorescence intensity [7, 16]: 18.5 MFI | fluorescence intensity [7, 17]: 22.8 MFI | fluorescence intensity [7, 18]: 96 MFI | fluorescence intensity [8, 19]: 26.5 MFI | fluorescence intensity [8, 20]: 28 MFI | fluorescence intensity [8, 13]: 27.8 MFI | fluorescence intensity [8, 14]: 27 MFI | fluorescence intensity [8, 15]: 27.5 MFI | fluorescence intensity [8, 16]: 28 MFI | fluorescence intensity [8, 17]: 28 MFI | fluorescence intensity [8, 18]: 39 MFI | fluorescence intensity [9, 19]: 30.8 MFI | fluorescence intensity [9, 20]: 29.2 MFI | fluorescence intensity [9, 13]: 30.8 MFI | fluorescence intensity [9, 14]: 29.5 MFI | fluorescence intensity [9, 15]: 29.5 MFI | fluorescence intensity [9, 16]: 30.5 MFI | fluorescence intensity [9, 17]: 31 MFI | fluorescence intensity [9, 18]: 54.8 MFI | fluorescence intensity [10, 19]: 15.5 MFI | fluorescence intensity [10, 20]: 16 MFI | fluorescence intensity [10, 13]: 16.2 MFI | fluorescence intensity [10, 14]: 16 MFI | fluorescence intensity [10, 15]: 17.2 MFI | fluorescence intensity [10, 16]: 18 MFI | fluorescence intensity [10, 17]: 21 MFI | fluorescence intensity [10, 18]: 58.2 MFI | fluorescence intensity [11, 19]: 16.5 MFI | fluorescence intensity [11, 20]: 22 MFI | fluorescence intensity [11, 13]: 52.5 MFI | fluorescence intensity [11, 14]: 178 MFI | fluorescence intensity [11, 15]: 478 MFI | fluorescence intensity [11, 16]: 2170 MFI | fluorescence intensity [11, 17]: 16300 MFI | fluorescence intensity [11, 18]: 8180 MFI | fluorescence intensity [12, 19]: 14.2 MFI | fluorescence intensity [12, 20]: 14.5 MFI | fluorescence intensity [12, 13]: 14.5 MFI | fluorescence intensity [12, 14]: 14.5 MFI

Reference: the supplement of paper PMC11438910
